The values below are quoted from earlier work in patent US20050255049A1, “Formoterol and mometasone aerosol formulations” (priority 2002, published 2005).

For this data set the following is noted: stated in the background.

Counter-ions that a name gives are not always drawn.

Turning to `COc1ccc(CC(C)NCC(O)c2ccc(O)c(NC=O)c2)cc1` (stereo not shown) [formoterol fumarate, N-[2-hydroxy-5-(1-hydroxy-2-((2-(4-methoxyphenyl)-1-methylethyl)amino)ethyl)phenyl]formamide], the density is reported as 1.3 g cm^−3.
